According to PMC6025110:
These are yes or no findings as the source states them, for the method shown. Binding seen in cells or lysates may run through a third protein. Some binding calls cover weakened binding; strength is not graded here.

Sequences of proteins named here, by UniProt entry; tags and fusion partners are left off. Residues count along the entry.
UniProt Q14667, residues 32-2235: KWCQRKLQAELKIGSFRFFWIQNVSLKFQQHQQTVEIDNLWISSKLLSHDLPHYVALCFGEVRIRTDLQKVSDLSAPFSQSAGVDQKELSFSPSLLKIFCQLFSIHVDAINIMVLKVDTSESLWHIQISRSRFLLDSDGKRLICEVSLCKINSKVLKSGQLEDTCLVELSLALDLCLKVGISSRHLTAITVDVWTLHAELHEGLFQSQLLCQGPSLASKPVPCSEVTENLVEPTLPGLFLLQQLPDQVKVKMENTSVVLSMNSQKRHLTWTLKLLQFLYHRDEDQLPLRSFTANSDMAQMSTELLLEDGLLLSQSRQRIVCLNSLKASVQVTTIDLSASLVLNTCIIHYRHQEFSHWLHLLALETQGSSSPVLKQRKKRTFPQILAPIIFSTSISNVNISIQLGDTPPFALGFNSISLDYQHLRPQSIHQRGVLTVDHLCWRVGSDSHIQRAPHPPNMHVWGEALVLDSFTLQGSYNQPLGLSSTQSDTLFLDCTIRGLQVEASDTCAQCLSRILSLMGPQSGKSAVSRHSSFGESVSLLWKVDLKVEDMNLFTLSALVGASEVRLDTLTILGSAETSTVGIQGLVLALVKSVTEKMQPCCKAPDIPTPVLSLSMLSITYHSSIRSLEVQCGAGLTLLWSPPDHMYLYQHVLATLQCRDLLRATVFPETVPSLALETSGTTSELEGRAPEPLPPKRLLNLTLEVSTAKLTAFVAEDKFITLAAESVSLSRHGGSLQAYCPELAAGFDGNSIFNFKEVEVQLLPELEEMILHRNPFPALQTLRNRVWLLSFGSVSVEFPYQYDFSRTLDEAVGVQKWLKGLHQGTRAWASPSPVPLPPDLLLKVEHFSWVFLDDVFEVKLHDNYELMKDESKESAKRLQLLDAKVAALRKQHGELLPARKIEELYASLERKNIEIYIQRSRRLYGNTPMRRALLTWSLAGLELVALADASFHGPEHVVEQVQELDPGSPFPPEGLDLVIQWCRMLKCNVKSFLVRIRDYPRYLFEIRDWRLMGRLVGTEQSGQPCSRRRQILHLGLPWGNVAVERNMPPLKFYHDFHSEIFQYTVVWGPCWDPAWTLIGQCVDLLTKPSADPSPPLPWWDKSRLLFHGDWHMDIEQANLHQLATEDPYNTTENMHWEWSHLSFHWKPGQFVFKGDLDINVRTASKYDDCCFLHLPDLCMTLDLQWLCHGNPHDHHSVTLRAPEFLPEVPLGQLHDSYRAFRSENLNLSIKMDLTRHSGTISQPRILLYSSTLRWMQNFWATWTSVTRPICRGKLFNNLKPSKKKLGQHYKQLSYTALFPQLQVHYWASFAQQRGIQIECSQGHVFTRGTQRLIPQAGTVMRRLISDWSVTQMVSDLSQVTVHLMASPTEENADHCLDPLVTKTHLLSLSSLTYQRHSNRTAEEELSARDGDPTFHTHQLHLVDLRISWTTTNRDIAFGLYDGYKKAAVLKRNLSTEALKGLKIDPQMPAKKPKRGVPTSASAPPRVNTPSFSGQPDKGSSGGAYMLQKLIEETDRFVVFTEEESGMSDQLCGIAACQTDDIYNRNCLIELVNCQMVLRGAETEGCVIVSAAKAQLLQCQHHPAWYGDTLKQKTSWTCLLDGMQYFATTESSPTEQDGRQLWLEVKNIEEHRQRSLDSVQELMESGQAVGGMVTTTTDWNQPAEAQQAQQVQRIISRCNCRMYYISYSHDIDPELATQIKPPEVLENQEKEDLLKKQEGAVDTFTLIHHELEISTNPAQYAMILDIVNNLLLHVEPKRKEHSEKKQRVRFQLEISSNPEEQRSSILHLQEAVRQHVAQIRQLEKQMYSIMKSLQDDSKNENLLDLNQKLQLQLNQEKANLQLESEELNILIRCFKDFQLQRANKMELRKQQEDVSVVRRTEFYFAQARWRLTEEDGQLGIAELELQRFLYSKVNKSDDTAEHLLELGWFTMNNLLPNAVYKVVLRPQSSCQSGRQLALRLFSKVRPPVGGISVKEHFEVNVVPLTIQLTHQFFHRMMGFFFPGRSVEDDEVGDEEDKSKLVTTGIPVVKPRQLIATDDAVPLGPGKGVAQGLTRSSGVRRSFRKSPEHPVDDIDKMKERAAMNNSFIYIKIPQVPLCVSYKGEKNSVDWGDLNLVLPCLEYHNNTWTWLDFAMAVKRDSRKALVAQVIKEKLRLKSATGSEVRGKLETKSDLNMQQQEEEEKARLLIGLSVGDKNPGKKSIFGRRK
UniProt P0DMV8: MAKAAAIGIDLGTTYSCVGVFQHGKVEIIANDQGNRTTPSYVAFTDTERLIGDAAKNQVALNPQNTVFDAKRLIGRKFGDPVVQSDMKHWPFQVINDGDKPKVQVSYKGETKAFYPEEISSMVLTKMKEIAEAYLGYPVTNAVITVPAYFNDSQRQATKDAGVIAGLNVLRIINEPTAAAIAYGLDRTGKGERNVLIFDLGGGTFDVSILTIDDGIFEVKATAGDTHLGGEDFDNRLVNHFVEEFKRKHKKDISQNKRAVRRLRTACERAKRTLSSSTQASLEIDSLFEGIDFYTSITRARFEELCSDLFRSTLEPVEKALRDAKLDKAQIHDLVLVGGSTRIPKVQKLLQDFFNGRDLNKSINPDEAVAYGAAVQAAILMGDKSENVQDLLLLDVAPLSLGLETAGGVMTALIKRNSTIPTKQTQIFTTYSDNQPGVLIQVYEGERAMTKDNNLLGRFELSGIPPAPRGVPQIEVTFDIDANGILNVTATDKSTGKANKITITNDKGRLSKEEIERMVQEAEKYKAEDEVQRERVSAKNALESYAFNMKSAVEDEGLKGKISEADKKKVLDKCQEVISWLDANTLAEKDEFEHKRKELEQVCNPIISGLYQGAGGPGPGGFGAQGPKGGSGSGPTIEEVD

Columns and labels:
[1] = target: recombinant KIAA0100 protein with FLAG and Myc tags on its C-terminus (human) (UniProt Q14667); test: co-IP; HEK293/pKIA cells cross-linked with 6 mM DTBP for 5 min, NP40 lysis buffer; capture with anti-FLAG monoclonal antibody on Dynabeads protein G; Western blot; controls anti-DIG isotype antibody and bare beads
[2] = target: HSPA1A (human (endogenous in HEK293)) (UniProt P0DMV8); test: co-IP; HEK293/pKIA cells cross-linked with 6 mM DTBP for 5 min, NP40 lysis buffer; capture with anti-HSPA1A monoclonal antibody on Dynabeads protein G; Western blot; controls anti-DIG isotype antibody and bare beads

| binding [1] | binding [2] | Substance |
| --- | --- | --- |
| binds | – | HSPA1A (from UniProt P0DMV8 1-641) |
| – | binds | recombinant KIAA0100 protein with FLAG and Myc tags on its C-terminus (from UniProt Q14667 32-2235) |
